# Measurements from the supplement of paper PMC8728848.
# The other results are listed elsewhere or left out.
# Experiments:
# Test in all cases: glycan array binding signal (z-score within array); higher = stronger binding
# Conditions in all cases: glycan notation: IUPAC condensed, linker removed
# [1] = biological target: Fuc(a1-2)Gal
# Method in brief: (§1)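 The binding signal is a Z-score computed within each array and averaged over linkers. Arrays of the same protein sequence at different concentrations or buffers were also averaged together. Data originate from 3228 arrays in the Consortium for Functional Glycomics database, kept only where the protein sequence was available.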
# [2] = biological target: Fuc(a1-2)Gal(b1-3)GalNAc
# Method in brief: as §1
# [3] = biological target: Fuc(a1-2)Gal(b1-3)GalNAc(a1-3)[Fuc(a1-2)]Gal(b1-4)Glc
# Method in brief: as §1
# [4] = biological target: Fuc(a1-2)Gal(b1-3)GalNAc(a1-3)[Fuc(a1-2)]Gal(b1-4)GlcNAc
# Method in brief: as §1
# [5] = biological target: Fuc(a1-2)Gal(b1-3)GalNAc(b1-3)Gal
# Method in brief: as §1
# [6] = biological target: Fuc(a1-2)Gal(b1-3)GalNAc(b1-3)Gal(a1-4)Gal(b1-4)Glc
# Method in brief: as §1
# [7] = biological target: Fuc(a1-2)Gal(b1-3)GalNAc(b1-4)[Neu5Ac(a2-3)]Gal(b1-4)Glc
# Method in brief: as §1
# [8] = biological target: Fuc(a1-2)Gal(b1-3)GlcNAc
# Method in brief: as §1
# [9] = biological target: Fuc(a1-2)Gal(b1-3)GlcNAc(b1-2)Man(a1-3)[Fuc(a1-2)Gal(b1-3)GlcNAc(b1-2)Man(a1-6)]Man(b1-4)GlcNAc(b1-4)GlcNAc
# Method in brief: as §1
# [10] = biological target: Fuc(a1-2)Gal(b1-3)GlcNAc(b1-2)Man(a1-3)[Fuc(a1-2)Gal(b1-3)GlcNAc(b1-2)Man(a1-6)]Man(b1-4)GlcNAc(b1-4)[Fuc(a1-6)]GlcNAc
# Method in brief: as §1
# [11] = biological target: Fuc(a1-2)Gal(b1-3)GlcNAc(b1-3)Gal(b1-4)Glc
# Method in brief: as §1
# [12] = biological target: Fuc(a1-2)Gal(b1-3)GlcNAc(b1-3)GalNAc
# Method in brief: as §1
# [13] = biological target: Fuc(a1-2)Gal(b1-3)GlcNAc(b1-3)[Fuc(a1-2)Gal(b1-3)GlcNAc(b1-6)]GalNAc
# Method in brief: as §1
# [14] = biological target: Fuc(a1-2)Gal(b1-3)GlcNAc(b1-3)[Fuc(a1-3)[Gal(b1-4)]GlcNAc(b1-6)]Gal(b1-4)Glc
# Method in brief: as §1
# [15] = biological target: Fuc(a1-2)Gal(b1-3)GlcNAc(b1-3)[Gal(b1-4)GlcNAc(b1-6)]Gal(b1-4)Glc
# Method in brief: as §1
# [16] = biological target: Fuc(a1-2)Gal(b1-3)GlcNAc(b1-3)[Neu5Ac(a2-6)Gal(b1-4)GlcNAc(b1-6)]Gal(b1-4)Glc
# Method in brief: as §1
# [17] = biological target: Fuc(a1-2)Gal(b1-3)GlcNAc6S
# Method in brief: as §1
# [18] = biological target: Fuc(a1-2)Gal(b1-3)[Fuc(a1-4)]GlcNAc
# Method in brief: as §1
# [19] = biological target: Fuc(a1-2)Gal(b1-3)[Fuc(a1-4)]GlcNAc(b1-2)Man(a1-3)[Fuc(a1-2)Gal(b1-3)[Fuc(a1-4)]GlcNAc(b1-2)Man(a1-6)]Man(b1-4)GlcNAc(b1-4)GlcNAc
# Method in brief: as §1
# [20] = biological target: Fuc(a1-2)Gal(b1-3)[Fuc(a1-4)]GlcNAc(b1-2)Man(a1-6)[Fuc(a1-2)Gal(b1-3)[Fuc(a1-4)]GlcNAc(b1-2)Man(a1-3)]Man(b1-4)GlcNAc(b1-4)[Fuc(a1-6)]GlcNAc
# Method in brief: as §1
# [21] = biological target: Fuc(a1-2)Gal(b1-3)[Fuc(a1-4)]GlcNAc(b1-3)[Fuc(a1-3)[Gal(b1-4)]GlcNAc(b1-6)]Gal(b1-4)Glc
# Method in brief: as §1
# [22] = biological target: Fuc(a1-2)Gal(b1-3)[Fuc(a1-4)]GlcNAc(b1-3)[Gal(b1-4)GlcNAc(b1-6)]Gal(b1-4)Glc
# Method in brief: as §1
# [23] = biological target: Fuc(a1-2)Gal(b1-4)Glc
# Method in brief: as §1
# [24] = biological target: Fuc(a1-2)Gal(b1-4)Glc6S
# Method in brief: as §1
# [25] = biological target: Fuc(a1-2)Gal(b1-4)GlcNAc
# Method in brief: as §1
# [26] = biological target: Fuc(a1-2)Gal(b1-4)GlcNAc(b1-2)Man
# Method in brief: as §1
# [27] = biological target: Fuc(a1-2)Gal(b1-4)GlcNAc(b1-2)Man(a1-3)[Fuc(a1-2)Gal(b1-4)GlcNAc(b1-2)Man(a1-6)]Man(b1-4)GlcNAc(b1-4)GlcNAc
# Method in brief: as §1
# [28] = biological target: Fuc(a1-2)Gal(b1-4)GlcNAc(b1-2)Man(a1-3)[Fuc(a1-2)Gal(b1-4)GlcNAc(b1-2)Man(a1-6)]Man(b1-4)GlcNAc(b1-4)[Fuc(a1-6)]GlcNAc
# Method in brief: as §1
# [29] = biological target: Fuc(a1-2)Gal(b1-4)GlcNAc(b1-2)[Fuc(a1-2)Gal(b1-4)GlcNAc(b1-4)]Man(a1-3)[Fuc(a1-2)Gal(b1-4)GlcNAc(b1-2)Man(a1-6)]Man(b1-4)GlcNAc(b1-4)GlcNAc
# Method in brief: as §1
# [30] = biological target: Fuc(a1-2)Gal(b1-4)GlcNAc(b1-3)Gal(b1-4)GlcNAc
# Method in brief: as §1
binder,measurement,setting,value
Intelectin-1a (Mus musculus) (protein) AEWSHPQFEKAEENLDTNRWGNSFFSSLPRSCKEIKQEHTKAQDGLYFLRTKNGVIYQTFCDMTTAGGGWTLVASVHENNMRGKCTVGDRWSSQQGNRADYPEGDGNWANYNTFGSAEAATSDDYKNPGYFDIQAENLGIWHVPNKSPLHNWRKSSLLRYRTFTGFLQHLGHNLFGLYKKYPVKYGEGKCWTDNGPALPVVYDFGDARKTASYYSPSGQREFTAGYVQFRVFNNERAASALCAGVRVTGCNTEHHCIGGGGFFPEGNPVQCGDFASFDWDGYGTHNGYSSSRKITEAAVLLFYR,glycan array binding signal (z-score),[1],1.16
same,glycan array binding signal (z-score),[2],-0.164
same,glycan array binding signal (z-score),[3],-0.541
same,glycan array binding signal (z-score),[4],1.56
same,glycan array binding signal (z-score),[5],-0.52
same,glycan array binding signal (z-score),[6],-0.523
same,glycan array binding signal (z-score),[7],-0.417
same,glycan array binding signal (z-score),[8],-0.677
same,glycan array binding signal (z-score),[9],-0.541
same,glycan array binding signal (z-score),[10],-0.492
same,glycan array binding signal (z-score),[11],-0.806
same,glycan array binding signal (z-score),[12],2.92
same,glycan array binding signal (z-score),[13],-0.329
same,glycan array binding signal (z-score),[14],-0.544
same,glycan array binding signal (z-score),[15],-0.885
same,glycan array binding signal (z-score),[16],-0.683
same,glycan array binding signal (z-score),[17],0.871
same,glycan array binding signal (z-score),[18],0.218
same,glycan array binding signal (z-score),[19],2.9
same,glycan array binding signal (z-score),[20],0.304
same,glycan array binding signal (z-score),[21],1.02
same,glycan array binding signal (z-score),[22],0.035
same,glycan array binding signal (z-score),[23],-0.881
same,glycan array binding signal (z-score),[24],0.116
same,glycan array binding signal (z-score),[25],0.167
same,glycan array binding signal (z-score),[26],1.06
same,glycan array binding signal (z-score),[27],-0.329
same,glycan array binding signal (z-score),[28],-0.624
same,glycan array binding signal (z-score),[29],-0.206
same,glycan array binding signal (z-score),[30],-0.367
